Assay results reported in PMC8464548.

Target: T1, Kinesin family member 2C (KIF2C), stably overexpressed in HepG2 cells (human) (UniProt Q99661)
T1 sequence: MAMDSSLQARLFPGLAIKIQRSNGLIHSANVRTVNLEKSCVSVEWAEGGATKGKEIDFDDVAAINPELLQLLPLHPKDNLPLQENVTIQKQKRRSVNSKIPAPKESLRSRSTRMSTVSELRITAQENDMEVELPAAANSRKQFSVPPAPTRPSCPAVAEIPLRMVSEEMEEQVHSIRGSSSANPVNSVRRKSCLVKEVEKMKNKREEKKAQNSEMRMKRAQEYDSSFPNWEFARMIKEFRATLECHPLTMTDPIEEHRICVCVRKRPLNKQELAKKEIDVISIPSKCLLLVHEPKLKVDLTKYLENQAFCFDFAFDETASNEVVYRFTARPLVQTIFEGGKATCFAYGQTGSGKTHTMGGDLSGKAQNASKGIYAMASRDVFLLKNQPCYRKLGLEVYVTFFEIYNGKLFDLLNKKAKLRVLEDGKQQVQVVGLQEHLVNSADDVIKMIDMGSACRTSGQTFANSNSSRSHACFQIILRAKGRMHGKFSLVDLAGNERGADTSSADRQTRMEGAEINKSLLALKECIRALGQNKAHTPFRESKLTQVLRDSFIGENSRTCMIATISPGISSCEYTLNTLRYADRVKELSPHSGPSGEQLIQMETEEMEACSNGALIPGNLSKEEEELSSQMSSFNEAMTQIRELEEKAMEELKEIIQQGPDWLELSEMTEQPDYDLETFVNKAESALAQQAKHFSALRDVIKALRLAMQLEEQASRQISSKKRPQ
Assay: affinity purification with mass spectrometry; immunoprecipitation from KIF2C-overexpressing HepG2 cells with KIF2C antibody (normal mouse IgG as control), TNE lysis buffer (10 mmol/L Tris-HCl pH 7.5, 150 mmol/L NaCl, 2 mmol/L EDTA, 0.5% Nonidet P-40), protein A/G beads 4 °C 4 h; silver staining, trypsin digest and mass spectrometry

binding: binds
B1: endogenous TBC1D7 (protein, UniProt Q9P0N9 1-293)
chain: MTEDSQRNFRSVYYEKVGFRGVEEKKSLEILLKDDRLDTEKLCTFSQRFPLPSMYRALVWKVLLGILPPHHESHAKVMMYRKEQYLDVLHALKVVRFVSDATPQAEVYLRMYQLESGKLPRSPSFPLEPDDEVFLAIAKAMEEMVEDSVDCYWITRRFVNQLNTKYRDSLPQLPKAFEQYLNLEDGRLLTHLRMCSAAPKLPYDLWFKRCFAGCLPESSLQRVWDKVVSGSCKILVFVAVEILLTFKIKVMALNSAEKITKFLENIPQDSSDAIVSKAIDLWHKHCGTPVHSS

Results are given in words; binding and its absence hold for the method and conditions named. Binding seen in cells or lysates may run through a third protein. Here binding means that the protein was enriched with, or labelled near, the bait; the list need not be complete.
